From PubChem BioAssay AID662 (National Center for Advancing Translational Sciences (NCATS), 2007)
The list shows a part of the results. The main result of the screen is listed elsewhere. These columns were measured beside it and carry no call. Most of these compounds were active or inconclusive in the main read-out, so they are no random draw. The note in brackets gives the kind of curve behind each potency; many fits are weak.

Test: Cell signaling CRE-BLA (Fsk stim)
Conditions: CHO CRE-bla reporter (cAMP response element driving beta-lactamase), forskolin EC10, beta-lactamase ratio; measured here: 460 nm blue channel
Summary of the method: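 Titrated compounds plus EC10 NKH 477 on CHO CRE-bla cells, 3 h, 37 °C. CCF4, 2 h RT. Ratio 460/530 nm → AC50.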

Compound | AC50
CN(C)C(=O)c1ccc(-c2nc(NCc3cccs3)c3ccccc3n2)cc1 | 2 µM [rising, full curve]
CC(C)n1c(SCC(=O)Nc2ccccc2N2CCCCC2)nc2c1c(=O)n(C)c(=O)n2C | 1 µM [rising, full curve]
CN(C)C(=O)c1c(-c2ccccc2)oc2ccc(O)cc12 | 0.0631 µM [falling, single point]
COc1ccc(-c2nc3cnc(N(C)C)nc3n(C3CC3)c2=O)cc1 | 7.94 µM [rising, partial curve]
CCCOc1ccc(C2/C(=C(/O)c3ccc(F)cc3)C(=O)C(=O)N2CCCN(C)C)cc1 (stereo not drawn) | 10 µM [falling, partial curve]
Cc1nc(C)c(-c2csc(Nc3cccnc3)n2)s1 | 7.94 µM [rising, partial curve]
COc1cc2c(cc1OC)CN(CC(=O)NC(=O)NCc1ccco1)CC2 | 25.1 µM [rising, single point]
COc1cc(-c2nc(Cc3ccccc3Cl)no2)cc(OC)c1OC | 7.94 µM [rising, partial curve]
N#Cc1nc(COc2ccc(-c3ccccc3)cc2)oc1NCCCN1CCOCC1 | 25.1 µM [rising, single point]
COc1cc(-c2nc(S(=O)(=O)c3ccccc3)c(N3CCOCC3)o2)cc(OC)c1OC | 2.51 µM [rising, full curve]
Cc1cccc(NC2=NCC(=O)N2Cc2ccccc2)c1 | 15.8 µM [falling, partial curve]
COc1ccc(-c2cc(C(=O)OC3CCOC3=O)c3ccccc3n2)cc1OC (stereo not drawn) | 10 µM [rising, partial curve]
COCCNc1nc(C)nc2c1nc(-c1ccccc1)n2C1CCN(Cc2ccccc2)C1 (stereo not drawn) | 10 µM [rising, partial curve]
CCOC(=O)N1CCN(c2nc3ccccc3nc2C(C#N)S(=O)(=O)c2ccc(C)cc2)CC1 (stereo not drawn) | 5.01 µM [rising, partial curve]
CSc1ccccc1NC(=O)Cn1c(-c2cscn2)nc2ccccc21 | 25.1 µM [rising, partial curve]
CN1C(=O)c2c(sc3c2CC(C)(C)SC3)N2CCN=C12 | 5.01 µM [falling, single point]
COc1ccccc1CNc1nc(-c2cccnc2)nc2ccccc12 | 12.6 µM [rising, partial curve]
CN1CSC2=C(C#N)C(c3cccc(OCc4ccccc4)c3)CC(=O)N2C1 (stereo not drawn) | 12.6 µM [rising, partial curve]
c1ccc(Cn2ncc3c(N4CCCCC4)ncnc32)cc1 | 12.6 µM [rising, partial curve]
CCn1c(Cn2nnc(-c3ccccc3)n2)nnc1SCc1ccc(Cl)c(Cl)c1 | 0.00398 µM [falling, full curve, poor fit]
Nc1ccccc1O | 15.8 µM [falling, partial curve, poor fit]
O=c1cc(C(F)(F)F)c2sc(N3CCCCC3)nc2[nH]1 | 12.6 µM [rising, single point]
O=C(c1oc2ccccc2c1CSCc1ccccc1)N1CCN(c2ncccn2)CC1 | 15.8 µM [falling, single point]

Compound | AC50
CCN(CC)S(=O)(=O)N1CCC(C(=O)NC2CCCC2)CC1 | 5.01 µM [falling, single point]
Cc1cc(C)n2nc(SCC(=O)c3ccc[nH]3)nc2n1 | 12.6 µM [rising, single point]
CC(C)n1nc(C(=O)Nc2nc3ccc(S(C)(=O)=O)cc3s2)c2ccccc2c1=O | 12.6 µM [rising, partial curve, poor fit]
COc1cc(NC(=O)c2cc(OC)c(OC)c(OC)c2)c(OC)cc1NC(=O)CN1CCCCC1 | 10 µM [rising, partial curve]
OC(Cn1cncn1)c1ccc(Cl)cc1 (stereo not drawn) | 0.00316 µM [falling, full curve, poor fit]
Cc1cccc(-n2c(CCN3C(=O)c4ccccc4C3=O)nc3ccccc3c2=O)n1 | 7.94 µM [rising, partial curve]
COCCCN(C(=O)c1ccco1)c1nc(-c2cc(OC)ccc2OC)cs1 | 6.31 µM [rising, partial curve]
CC(C)Cc1cc(C(=O)Nc2sc3c(c2C#N)CCCC3)no1 | 2.51 µM [rising, full curve, poor fit]
COCC(C)n1c(C)cc(C(=O)COC(=O)c2c(C)nn(-c3ccccc3)c2C)c1C (stereo not drawn) | 12.6 µM [rising, partial curve]
Cn1cnc(S(=O)(=O)N2CCc3ccccc32)c1 | 0.0501 µM [falling, partial curve, poor fit]
N#CCCn1c(=O)cnc2cnc(Oc3ccccc3)nc21 | 1.26 µM [rising, partial curve]
Cc1csc(C(C#N)C(=O)c2ccncc2)n1 (stereo not drawn) | 1 µM [falling, single point]
CCN1CCN(C(c2cccs2)C(C)NC(=O)CC(C)C)CC1 (stereo not drawn) | 25.1 µM [rising, single point]
Cn1c(CSc2nc3ccccc3s2)nc2ccccc21 | 10 µM [rising, partial curve]
CCCCCCC(=O)N(O)C1CC(=O)N(c2ccc(Br)cc2)C1=O (stereo not drawn) | 0.158 µM [falling, full curve]
Cc1ccc(Cn2c(=O)c3ccccc3n3c(SCC(=O)N4CCCCC4C)nnc23)cc1 (stereo not drawn) | 10 µM [rising, partial curve]
COc1ccccc1-c1nc(C#N)c(NCc2ccc(F)cc2)o1 | 10 µM [rising, partial curve]
O=C(NCCc1ccc2c(c1)OCO2)C1CCN(S(=O)(=O)c2ccc(Cl)cc2)CC1 | 0.00398 µM [falling, full curve, poor fit]
Cc1ccc(N(C(=O)CNC(=O)c2ccco2)C(C(=O)NCC2CCCO2)c2ccccc2)cc1 (stereo not drawn) | 3.16 µM [rising, single point]
CCc1ccc2oc(=O)cc(CN3CCC(C)CC3)c2c1 | 15.8 µM [rising, partial curve]
N#Cc1cnc(SCC(=O)c2ccccc2)nc1N | 20 µM [rising, single point]
CCOC(=O)N1CCN(Cc2nc3c(c(=O)[nH]c(=O)n3C)n2Cc2cc(C)ccc2C)CC1 | 2 µM [rising, partial curve]
COc1ccc(-c2cc3nc(-c4ccccc4)cc(N4CCC5(CC4)OCCO5)n3n2)cc1 | 10 µM [rising, partial curve]

Shown as tab-separated lines: entries from further up.
Compound	AC50
COc1cc2c(cc1OC)CN(CC(=O)NC(=O)NCc1ccco1)CC2	25.1 µM [rising, single point]
COc1ccc(-c2cc(C(=O)OC3CCOC3=O)c3ccccc3n2)cc1OC (stereo not drawn)	10 µM [rising, partial curve]
CN1CSC2=C(C#N)C(c3cccc(OCc4ccccc4)c3)CC(=O)N2C1 (stereo not drawn)	12.6 µM [rising, partial curve]
COc1ccc(-c2cc3nc(-c4ccccc4)cc(N4CCC5(CC4)OCCO5)n3n2)cc1	10 µM [rising, partial curve]

Later entries.

Compound | AC50
COc1ccc(S(=O)(=O)N2CCN(C(=O)c3cccs3)CC2)cc1OC | 12.6 µM [rising, single point]
COC(=O)c1cnn2c(C)c(Cc3cccc(F)c3)c(C)nc12 | 10 µM [rising, partial curve]
CNC(=O)c1cc2cc(OC)ccc2oc1=N | 6.31 µM [rising, partial curve]
CCCCCn1c(SCc2ccncc2)nc2cc(C(=O)NCc3ccco3)ccc2c1=O | 2.51 µM [rising, single point]
COc1ccc(S(=O)(=O)Cc2ccc(C(=O)N3CCN(c4ncccn4)CC3)o2)cc1 | 12.6 µM [rising, single point]
COc1ncc2nc(-c3ccc(F)cc3)c(=O)n(CCc3ccccc3)c2n1 | 12.6 µM [rising, partial curve]
O=c1c(-c2ccc(F)c(F)c2)nc2cncnc2n1C1CC1 | 3.16 µM [falling, single point]
Cc1cccc(CNc2nc(-c3cccc(NS(C)(=O)=O)c3)nc3ccccc23)c1 | 15.8 µM [falling, single point]
O=C(CNS(=O)(=O)c1ccc(Br)s1)N1CCC(N2CCCCC2)CC1 | 0.251 µM [falling, partial curve]
CC(=O)C1=C(C)NC(SCC(=O)c2ccc(Cl)c(Cl)c2)=C(C#N)C1c1ccco1 (stereo not drawn) | 2 µM [rising, full curve]
Cc1nc2cnc(Oc3ccccc3)nc2n(CCc2ccccc2)c1=O | 15.8 µM [rising, partial curve]
O=C(Nc1nnc(CCc2ccccc2)s1)C1CCCO1 (stereo not drawn) | 15.8 µM [rising, single point]
Cc1ccccc1CS(=O)(=O)Cc1ccc(C(=O)NCc2ccco2)o1 | 0.126 µM [falling, full curve]
O=C(Nc1cccnc1)c1cc(-c2ccc3c(c2)OCO3)on1 | 5.01 µM [rising, single point]
O=c1[nH]c2c(s1)C(c1ccco1)C1C3CCC(C3)C1S2 (stereo not drawn) | 12.6 µM [rising, partial curve]
COc1cccc2[nH]c3c(N4CCCCC4)ncnc3c12 | 12.6 µM [rising, partial curve]
CCOCC(=O)Nc1sc2c(c1C(=O)OCC)CCCC2 | 10 µM [rising, partial curve]
CCOC(=O)c1c(C)oc2cc(Br)c(OC(C)C(=O)OCC)cc12 (stereo not drawn) | 15.8 µM [rising, single point]
CCCCN(C(=O)c1ccco1)c1nnc(-c2cc(OC)c(OC)c(OC)c2)s1 | 2.51 µM [rising, full curve]
O=C(O)CCCc1nc(-c2ccccc2)no1 | 0.0794 µM [falling, single point]
CCS(=O)(=O)N1CCC(C(=O)N2CCOCC2)CC1 | 0.00501 µM [falling, full curve, poor fit]
Cc1cnn(-c2ccc3nnc(-c4ccc(Br)cc4)n3n2)c1 | 6.31 µM [rising, partial curve]
